PubChem BioAssay AID1259308 | NCATS | 2017

- Screen: 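Knock-downs that increase output of a recombinant reporter protein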 (primary screen)
- System: human HEK293 embryonic kidney cells stably expressing firefly luciferase (HEK-CMV-Luc2-Hygro)
- Reagents: single siRNA against human genes, 0.8 pmol siRNA per well
- Duration: 72 h
- Read-out: 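Luciferase light (ONE-Glo) measured on one replicate plate set and viability (CellTiter-Glo) on the other, scaled to a negative control siRNA, with robust z-scores and luciferase per cell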
- Direction: total luciferase, z-score and total luciferase, % of control: higher = more reporter protein produced; luciferase per cell, z-score: higher = more reporter output per viable cell; viable cells, % of control: higher = more viable cells
- Hit rule: 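Active when the median/MAD z-score for overall luciferase is greater than 3; a gene was taken forward for validation with new siRNAs if at least two of its three siRNAs passed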
- Calls: active = raised luciferase; inactive = no rise
In all, the deposit lists about 59,000 reagents; below is an unselected part. In the full data, about 1,510 (2.6%) were called active. 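Calls use total luciferase alone and ignore viability, so some active siRNAs may act by altering cell number.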 The numbers tell different reagents against one gene apart. No sequences are given here.

gene | reagent no. | total luciferase, z-score | total luciferase, % of control | luciferase per cell, z-score | viable cells, % of control | activity call
CLMN | 1 | 1.71 | 116 | 2.5 | 66.9 | inactive
CLMN | 2 | -0.242 | 77.1 | -0.427 | 96.4 | inactive
CLMN | 3 | -0.207 | 77.8 | 0.117 | 84.3 | inactive
XYLT2 | 1 | -1.69 | 48.4 | 0.19 | 51.4 | inactive
XYLT2 | 2 | -0.0687 | 80.5 | 0.407 | 80.8 | inactive
XYLT2 | 3 | -0.566 | 70.6 | -0.448 | 88.8 | inactive
OTUB2 | 1 | 0.438 | 90.6 | 0.49 | 89 | inactive
OTUB2 | 2 | 1.26 | 107 | 1.38 | 83.1 | inactive
OTUB2 | 3 | -0.77 | 66.6 | -1.28 | 104 | inactive
EPHA2 | 1 | -0.344 | 75 | -0.0133 | 84.1 | inactive
EPHA2 | 2 | 0.251 | 86.9 | 0.0564 | 95.7 | inactive
EPHA2 | 3 | -0.107 | 79.8 | -0.625 | 105 | inactive
SCG3 | 1 | 0.276 | 87.4 | 0.138 | 94.2 | inactive
SCG3 | 2 | 0.71 | 96 | 0.403 | 96.5 | inactive
SCG3 | 3 | -0.754 | 66.9 | -0.742 | 90.9 | inactive
KRTAP19-6 | 1 | 1.71 | 116 | 1.19 | 94.7 | inactive
KRTAP19-6 | 2 | -0.6 | 69.9 | -0.437 | 87.7 | inactive
KRTAP19-6 | 3 | 1.06 | 103 | 1.03 | 87.7 | inactive
BSG | 1 | -0.572 | 70.5 | -0.423 | 88.1 | inactive
BSG | 2 | 0.237 | 86.6 | 0.432 | 86.4 | inactive
BSG | 3 | -0.424 | 73.5 | -0.189 | 86.3 | inactive
RHOH | 1 | 0.54 | 92.6 | -0.0371 | 105 | inactive
RHOH | 2 | 1.51 | 112 | 0.722 | 103 | inactive
RHOH | 3 | 0.231 | 86.5 | 1.22 | 70.1 | inactive

No new results follow: 9 of the entries above.
gene | reagent no. | total luciferase, z-score | total luciferase, % of control | luciferase per cell, z-score | viable cells, % of control | activity call
KRTAP19-6 | 1 | 1.71 | 116 | 1.19 | 94.7 | inactive
KRTAP19-6 | 2 | -0.6 | 69.9 | -0.437 | 87.7 | inactive
KRTAP19-6 | 3 | 1.06 | 103 | 1.03 | 87.7 | inactive
BSG | 1 | -0.572 | 70.5 | -0.423 | 88.1 | inactive
BSG | 2 | 0.237 | 86.6 | 0.432 | 86.4 | inactive
BSG | 3 | -0.424 | 73.5 | -0.189 | 86.3 | inactive
RHOH | 1 | 0.54 | 92.6 | -0.0371 | 105 | inactive
RHOH | 2 | 1.51 | 112 | 0.722 | 103 | inactive
RHOH | 3 | 0.231 | 86.5 | 1.22 | 70.1 | inactive

Further records follow.
gene | reagent no. | total luciferase, z-score | total luciferase, % of control | luciferase per cell, z-score | viable cells, % of control | activity call
SPINT2 | 1 | 0.588 | 93.6 | 0.68 | 87.4 | inactive
SPINT2 | 2 | -0.715 | 67.7 | 1.36 | 52.8 | inactive
SPINT2 | 3 | 0.825 | 98.3 | 0.344 | 100 | inactive
GAS2L2 | 1 | -0.291 | 76.1 | -0.157 | 88.6 | inactive
GAS2L2 | 2 | 0.0544 | 83 | 0.155 | 89 | inactive
GAS2L2 | 3 | -1.62 | 49.6 | -1.33 | 78.6 | inactive
STIL | 1 | 0.752 | 96.8 | 0.0225 | 108 | inactive
STIL | 2 | -1.56 | 50.8 | -1.47 | 83.7 | inactive
STIL | 3 | -1.02 | 61.5 | -0.0189 | 69.1 | inactive
C11orf58 | 1 | 2.54 | 132 | 1.24 | 107 | inactive
C11orf58 | 2 | 1.44 | 110 | 0.52 | 108 | inactive
C11orf58 | 3 | 0.584 | 93.5 | -0.0519 | 106 | inactive
LAMA1 | 1 | 1.02 | 102 | 1.19 | 83.5 | inactive
LAMA1 | 2 | 0.86 | 99 | 0.846 | 88.5 | inactive
LAMA1 | 3 | -0.828 | 65.4 | -0.883 | 92.2 | inactive
HDDC3 | 1 | -0.737 | 67.2 | 0.765 | 61.4 | inactive
HDDC3 | 2 | -0.879 | 64.4 | 1.61 | 47 | inactive
HDDC3 | 3 | -0.936 | 63.3 | -1.32 | 100 | inactive
BMS1P11 | 1 | 1.68 | 115 | 2.29 | 70.6 | inactive
BMS1P11 | 2 | -1.52 | 51.6 | -0.436 | 64.7 | inactive
BMS1P11 | 3 | 1.31 | 108 | 1.32 | 85.2 | inactive
UROC1 | 1 | 0.72 | 96.2 | -0.148 | 112 | inactive
UROC1 | 2 | 0.667 | 95.1 | 0.329 | 97.5 | inactive
UROC1 | 3 | 0.767 | 97.1 | -0.259 | 116 | inactive
ACSS1 | 1 | 0.998 | 102 | 0.125 | 110 | inactive
ACSS1 | 2 | 2 | 122 | 2.33 | 73.6 | inactive
ACSS1 | 3 | -1.6 | 50.1 | -1.58 | 84.9 | inactive
PLAUR | 1 | -0.407 | 73.8 | -0.325 | 89.8 | inactive
PLAUR | 2 | 0.551 | 92.8 | 0.509 | 90.7 | inactive
PLAUR | 3 | 2.94 | 140 | 2.12 | 89.8 | inactive
COG2 | 1 | -1.69 | 48.3 | -1.65 | 83.2 | inactive
COG2 | 2 | 2.4 | 130 | 2.69 | 71.4 | inactive
COG2 | 3 | -1.53 | 51.4 | -1.9 | 94.8 | inactive
